Here are results for 69 targets from the supplement of paper PMC10060354, “Discovery of a small molecule ligand of FRS2 that inhibits invasion and tumor growth” (Cellular Oncology, 2022).

Chains of the proteins cited; added tags and fusions are not shown. Lines headed by an entry give the natural chain unless they say otherwise; changes in a name come on top.
UniProt Q13015: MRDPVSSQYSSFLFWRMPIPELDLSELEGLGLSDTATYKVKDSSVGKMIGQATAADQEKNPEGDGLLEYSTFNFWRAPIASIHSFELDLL
UniProt Q13472: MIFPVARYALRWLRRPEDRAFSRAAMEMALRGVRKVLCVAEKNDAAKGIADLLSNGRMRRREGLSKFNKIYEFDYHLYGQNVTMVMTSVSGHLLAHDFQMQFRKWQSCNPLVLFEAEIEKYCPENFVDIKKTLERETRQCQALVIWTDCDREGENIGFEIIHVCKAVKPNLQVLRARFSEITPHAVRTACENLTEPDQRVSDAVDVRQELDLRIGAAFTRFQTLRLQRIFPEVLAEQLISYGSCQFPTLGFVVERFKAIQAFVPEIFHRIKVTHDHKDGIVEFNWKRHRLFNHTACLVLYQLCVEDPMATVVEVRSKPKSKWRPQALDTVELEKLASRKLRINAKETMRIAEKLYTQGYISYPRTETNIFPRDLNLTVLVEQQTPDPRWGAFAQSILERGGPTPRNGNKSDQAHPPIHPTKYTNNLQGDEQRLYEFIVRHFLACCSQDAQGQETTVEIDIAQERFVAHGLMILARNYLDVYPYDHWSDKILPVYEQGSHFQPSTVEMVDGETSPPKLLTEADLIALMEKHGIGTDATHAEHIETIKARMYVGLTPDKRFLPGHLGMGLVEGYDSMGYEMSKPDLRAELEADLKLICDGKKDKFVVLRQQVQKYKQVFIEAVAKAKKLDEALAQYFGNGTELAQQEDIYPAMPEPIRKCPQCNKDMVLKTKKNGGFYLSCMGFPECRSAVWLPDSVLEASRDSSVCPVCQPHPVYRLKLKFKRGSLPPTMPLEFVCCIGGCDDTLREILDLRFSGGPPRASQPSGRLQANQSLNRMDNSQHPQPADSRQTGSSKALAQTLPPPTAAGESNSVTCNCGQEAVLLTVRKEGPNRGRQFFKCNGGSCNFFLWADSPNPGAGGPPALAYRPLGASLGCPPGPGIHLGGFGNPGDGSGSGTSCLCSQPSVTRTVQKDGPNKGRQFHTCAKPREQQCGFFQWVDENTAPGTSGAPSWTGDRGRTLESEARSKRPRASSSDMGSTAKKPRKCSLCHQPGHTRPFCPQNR
UniProt Q13155: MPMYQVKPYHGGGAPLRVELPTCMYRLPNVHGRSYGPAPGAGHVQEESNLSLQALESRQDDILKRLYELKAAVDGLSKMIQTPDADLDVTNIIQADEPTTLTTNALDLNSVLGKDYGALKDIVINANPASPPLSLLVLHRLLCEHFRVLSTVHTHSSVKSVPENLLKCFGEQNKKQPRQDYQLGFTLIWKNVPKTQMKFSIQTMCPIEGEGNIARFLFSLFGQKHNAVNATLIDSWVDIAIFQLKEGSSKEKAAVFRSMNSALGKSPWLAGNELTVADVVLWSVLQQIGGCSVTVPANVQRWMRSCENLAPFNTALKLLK
UniProt P43355: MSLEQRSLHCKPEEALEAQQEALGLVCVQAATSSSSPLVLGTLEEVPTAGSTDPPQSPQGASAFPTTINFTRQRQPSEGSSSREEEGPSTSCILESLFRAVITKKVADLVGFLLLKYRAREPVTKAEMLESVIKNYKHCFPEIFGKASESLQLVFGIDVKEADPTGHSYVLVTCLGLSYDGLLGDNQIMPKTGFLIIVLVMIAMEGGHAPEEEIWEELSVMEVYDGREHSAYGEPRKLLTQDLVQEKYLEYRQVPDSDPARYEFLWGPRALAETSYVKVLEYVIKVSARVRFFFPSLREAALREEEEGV
UniProt P49770: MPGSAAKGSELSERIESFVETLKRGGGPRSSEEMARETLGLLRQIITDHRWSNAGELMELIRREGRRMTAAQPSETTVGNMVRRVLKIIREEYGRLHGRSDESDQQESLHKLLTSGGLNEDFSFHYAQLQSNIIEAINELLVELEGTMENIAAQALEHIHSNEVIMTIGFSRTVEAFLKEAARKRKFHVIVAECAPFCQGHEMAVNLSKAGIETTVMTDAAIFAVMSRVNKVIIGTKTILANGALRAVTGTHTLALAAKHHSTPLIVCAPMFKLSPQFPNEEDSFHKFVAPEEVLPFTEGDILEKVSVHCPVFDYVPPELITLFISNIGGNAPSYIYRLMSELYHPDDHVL
UniProt O00401, whole entry: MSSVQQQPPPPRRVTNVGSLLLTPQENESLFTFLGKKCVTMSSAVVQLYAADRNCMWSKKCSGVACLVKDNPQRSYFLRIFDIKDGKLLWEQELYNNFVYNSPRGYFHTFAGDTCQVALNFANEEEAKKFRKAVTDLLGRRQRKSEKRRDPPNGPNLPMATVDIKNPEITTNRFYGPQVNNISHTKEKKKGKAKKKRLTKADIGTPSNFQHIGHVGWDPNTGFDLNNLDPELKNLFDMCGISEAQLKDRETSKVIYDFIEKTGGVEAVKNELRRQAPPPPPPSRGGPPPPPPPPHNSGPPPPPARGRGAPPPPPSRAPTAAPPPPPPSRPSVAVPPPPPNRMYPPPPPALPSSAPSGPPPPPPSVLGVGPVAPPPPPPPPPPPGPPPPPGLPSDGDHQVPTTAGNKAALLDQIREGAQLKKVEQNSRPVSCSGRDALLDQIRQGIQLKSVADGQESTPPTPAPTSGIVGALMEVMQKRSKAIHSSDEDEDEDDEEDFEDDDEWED
UniProt Q6NXT1: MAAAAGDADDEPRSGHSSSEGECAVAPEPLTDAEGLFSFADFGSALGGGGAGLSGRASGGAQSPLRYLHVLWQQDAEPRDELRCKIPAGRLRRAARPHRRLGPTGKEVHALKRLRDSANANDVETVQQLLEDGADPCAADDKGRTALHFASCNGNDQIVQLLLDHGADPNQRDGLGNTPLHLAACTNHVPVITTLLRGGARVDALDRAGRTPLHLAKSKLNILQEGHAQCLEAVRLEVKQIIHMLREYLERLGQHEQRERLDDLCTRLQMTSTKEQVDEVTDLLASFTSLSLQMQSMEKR
UniProt Q9H871: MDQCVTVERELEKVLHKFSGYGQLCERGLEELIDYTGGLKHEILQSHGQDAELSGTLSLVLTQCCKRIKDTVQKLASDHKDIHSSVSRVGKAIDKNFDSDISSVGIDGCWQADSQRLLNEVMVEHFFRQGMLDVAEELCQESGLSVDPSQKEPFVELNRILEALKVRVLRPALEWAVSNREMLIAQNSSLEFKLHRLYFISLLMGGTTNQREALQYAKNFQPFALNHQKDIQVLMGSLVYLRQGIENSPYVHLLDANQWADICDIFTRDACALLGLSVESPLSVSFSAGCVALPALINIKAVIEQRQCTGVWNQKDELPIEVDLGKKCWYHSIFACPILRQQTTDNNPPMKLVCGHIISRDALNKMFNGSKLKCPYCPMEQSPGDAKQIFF
UniProt Q96K76: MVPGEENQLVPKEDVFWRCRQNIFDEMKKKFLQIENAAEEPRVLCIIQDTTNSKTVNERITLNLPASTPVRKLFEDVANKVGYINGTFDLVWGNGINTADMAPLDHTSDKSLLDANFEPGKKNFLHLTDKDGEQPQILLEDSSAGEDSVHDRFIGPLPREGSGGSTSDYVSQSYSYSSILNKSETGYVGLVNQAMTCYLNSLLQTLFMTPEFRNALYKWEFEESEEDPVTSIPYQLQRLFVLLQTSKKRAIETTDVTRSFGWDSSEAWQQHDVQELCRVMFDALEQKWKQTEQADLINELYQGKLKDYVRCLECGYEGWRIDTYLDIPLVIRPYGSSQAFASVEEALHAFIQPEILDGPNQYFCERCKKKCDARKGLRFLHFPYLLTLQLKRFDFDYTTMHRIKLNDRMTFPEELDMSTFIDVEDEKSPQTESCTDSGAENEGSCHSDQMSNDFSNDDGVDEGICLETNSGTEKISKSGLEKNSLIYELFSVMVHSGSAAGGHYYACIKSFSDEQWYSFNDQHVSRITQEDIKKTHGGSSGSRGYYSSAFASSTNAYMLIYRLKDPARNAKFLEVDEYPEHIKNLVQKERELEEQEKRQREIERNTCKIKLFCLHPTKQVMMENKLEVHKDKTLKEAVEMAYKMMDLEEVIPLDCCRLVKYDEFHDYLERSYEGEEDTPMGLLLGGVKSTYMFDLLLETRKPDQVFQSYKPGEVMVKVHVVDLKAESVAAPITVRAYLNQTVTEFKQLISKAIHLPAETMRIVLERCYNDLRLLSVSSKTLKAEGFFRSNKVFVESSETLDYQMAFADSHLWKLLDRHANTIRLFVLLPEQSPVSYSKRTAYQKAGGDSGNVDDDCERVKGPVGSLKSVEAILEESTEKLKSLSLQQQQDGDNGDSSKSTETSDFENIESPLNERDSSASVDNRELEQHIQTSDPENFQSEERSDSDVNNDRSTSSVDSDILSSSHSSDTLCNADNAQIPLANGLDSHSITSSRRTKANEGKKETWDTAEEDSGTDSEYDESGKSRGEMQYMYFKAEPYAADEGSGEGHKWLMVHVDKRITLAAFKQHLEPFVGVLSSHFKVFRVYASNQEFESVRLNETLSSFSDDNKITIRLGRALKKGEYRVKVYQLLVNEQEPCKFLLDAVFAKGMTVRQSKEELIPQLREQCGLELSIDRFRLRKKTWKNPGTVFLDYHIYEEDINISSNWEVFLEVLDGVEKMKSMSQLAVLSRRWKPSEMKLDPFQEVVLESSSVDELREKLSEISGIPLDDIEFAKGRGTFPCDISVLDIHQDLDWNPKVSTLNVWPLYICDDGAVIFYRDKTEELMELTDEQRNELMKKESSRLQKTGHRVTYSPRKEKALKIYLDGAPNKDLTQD
UniProt Q6P1N0: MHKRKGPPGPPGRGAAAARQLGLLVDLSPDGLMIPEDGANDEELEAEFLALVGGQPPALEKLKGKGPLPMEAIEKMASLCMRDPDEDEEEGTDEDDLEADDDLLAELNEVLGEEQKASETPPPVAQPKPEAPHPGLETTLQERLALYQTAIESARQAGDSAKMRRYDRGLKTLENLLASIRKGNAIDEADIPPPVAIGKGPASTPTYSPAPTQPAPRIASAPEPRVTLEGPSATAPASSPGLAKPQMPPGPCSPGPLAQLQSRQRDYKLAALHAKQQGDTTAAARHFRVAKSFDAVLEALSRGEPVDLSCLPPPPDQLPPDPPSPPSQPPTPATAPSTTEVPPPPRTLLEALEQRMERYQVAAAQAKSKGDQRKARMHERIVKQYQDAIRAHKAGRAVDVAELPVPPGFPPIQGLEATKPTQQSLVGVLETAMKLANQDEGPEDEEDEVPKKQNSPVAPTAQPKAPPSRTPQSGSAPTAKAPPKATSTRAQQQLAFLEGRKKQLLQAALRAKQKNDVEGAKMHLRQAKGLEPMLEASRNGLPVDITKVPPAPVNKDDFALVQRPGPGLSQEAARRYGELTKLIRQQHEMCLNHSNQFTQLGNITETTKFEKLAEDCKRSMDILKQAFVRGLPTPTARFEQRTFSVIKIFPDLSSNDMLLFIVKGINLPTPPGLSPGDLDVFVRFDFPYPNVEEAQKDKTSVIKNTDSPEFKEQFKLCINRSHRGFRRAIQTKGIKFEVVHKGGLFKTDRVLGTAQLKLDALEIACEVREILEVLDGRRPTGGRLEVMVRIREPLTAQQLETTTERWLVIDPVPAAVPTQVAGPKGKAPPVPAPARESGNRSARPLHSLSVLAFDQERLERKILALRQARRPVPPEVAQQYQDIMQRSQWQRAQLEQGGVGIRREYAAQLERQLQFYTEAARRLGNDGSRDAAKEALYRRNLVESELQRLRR
UniProt Q9H0Q0: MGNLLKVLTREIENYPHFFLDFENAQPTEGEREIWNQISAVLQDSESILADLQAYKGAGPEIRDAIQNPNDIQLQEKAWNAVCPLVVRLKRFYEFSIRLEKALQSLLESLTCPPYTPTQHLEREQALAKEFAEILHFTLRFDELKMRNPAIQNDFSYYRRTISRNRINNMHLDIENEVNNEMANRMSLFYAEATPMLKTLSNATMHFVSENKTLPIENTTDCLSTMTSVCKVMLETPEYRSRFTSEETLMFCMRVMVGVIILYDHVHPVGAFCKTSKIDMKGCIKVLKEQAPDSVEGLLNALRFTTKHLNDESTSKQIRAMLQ
UniProt P48723: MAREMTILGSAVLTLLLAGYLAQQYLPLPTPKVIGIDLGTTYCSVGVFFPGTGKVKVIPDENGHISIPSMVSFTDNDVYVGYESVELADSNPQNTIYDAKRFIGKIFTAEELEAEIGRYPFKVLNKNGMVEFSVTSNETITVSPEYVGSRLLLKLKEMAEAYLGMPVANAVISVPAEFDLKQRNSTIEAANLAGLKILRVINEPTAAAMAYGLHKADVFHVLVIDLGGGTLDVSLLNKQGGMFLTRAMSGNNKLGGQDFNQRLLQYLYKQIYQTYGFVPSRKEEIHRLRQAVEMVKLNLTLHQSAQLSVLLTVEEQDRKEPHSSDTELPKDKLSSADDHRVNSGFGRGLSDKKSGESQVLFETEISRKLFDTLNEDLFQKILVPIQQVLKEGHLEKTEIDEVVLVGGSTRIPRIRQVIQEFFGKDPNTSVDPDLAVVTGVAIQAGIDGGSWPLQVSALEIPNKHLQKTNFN
UniProt Q96HJ9: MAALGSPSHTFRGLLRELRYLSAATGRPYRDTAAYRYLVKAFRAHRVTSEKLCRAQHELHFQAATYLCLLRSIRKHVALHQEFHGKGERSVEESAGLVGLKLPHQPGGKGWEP

Single values are uncertain, as repeats are few or missing.

Compound in the experiment: [O-][N+](C(C1=C(C(O)=C2)NC(C(C=C3)=CC=C3Cl)C4C1C=CC4)=C2Cl)=O
As to the kind of experiment: melting temperature shift (compound 7 minus DMSO); higher = compound stabilises the protein. The note with it: 10 µM. On the procedure:
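Thermal proteome profiling (TMT mass spectrometry) in intact DAOY medulloblastoma cells or DAOY lysates treated with 10 µM compound 7 or DMSO, heated at 10 temperatures from 40.5 to 73.8 °C for 3 min. Melting curves were fitted with the Bioconductor TPP package, and the melting point difference between compound and vehicle is reported per protein (single curve per condition).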

[1] abbreviates: system: DAOY cell lysate, treatment time: 20 min, 4 °C.
Where [2] appears, read: system: intact DAOY cells, treatment time: 90 min, 37 °C.

Turning to KBTBD4 (UniProt Q9NVX7), under setting [1], the melting temperature shift was -0.938 °C.
On to ANAPC4 (UniProt Q9UJX5), for which the melting temperature shift under setting [1] stood at 0.067 °C.
Turning to HAGH (UniProt Q16775), the melting temperature shift stood at 0.307 °C under setting [1] and 0.0132 °C under setting [2].
For the target ARHGAP5 (UniProt Q13017), under setting [1], the melting temperature shift is -1.32 °C.
In the case of ATXN3 (UniProt P54252), under setting [1], the melting temperature shift is -0.463 °C.
Regarding UniProt Q13015, the melting temperature shift under setting [1] was -0.149 °C.
Regarding UniProt P00918, under setting [1], the melting temperature shift is -0.546 °C.
On to UniProt Q96AD5, for which the melting temperature shift under setting [1] was -0.369 °C and the melting temperature shift under setting [2] is -0.675 °C.
For the target TPMT (UniProt P51580), the melting temperature shift is -0.575 °C under setting [1] and 1.74 °C under setting [2].
For ARF4 (UniProt P18085) the same measures were -1.02 °C and -1.59 °C.
For the target UniProt Q6P9F7, the melting temperature shift under setting [2] is -1.93 °C.
As for CDC123 (UniProt O75794), the melting temperature shift by setting is: under setting [1], -0.953 °C; under setting [2], -0.849 °C.
On to NDUFS3 (UniProt O75489), for which the melting temperature shift under setting [1] came to 0.679 °C and the melting temperature shift under setting [2] was -0.288 °C.
With TOP3A (UniProt Q13472), under setting [1], the melting temperature shift is -1.18 °C.
Take KYAT3 (UniProt Q6YP21): the melting temperature shift is, setting by setting: under setting [1], -0.562 °C; under setting [2], 0.23 °C.
The like results for DDX27 (UniProt Q96GQ7) were, in that order, 0.749 °C and 2.24 °C.
Take FUS (UniProt P35637): under setting [1], the melting temperature shift is 4.49 °C.
On to SAFB (UniProt Q15424), for which the melting temperature shift was 1.11 °C under setting [1] and -0.108 °C under setting [2].
DEGS1 (UniProt O15121): under setting [1], the melting temperature shift is -1.19 °C.
In the case of MAGT1 (UniProt Q9H0U3), the melting temperature shift under setting [1] was 1.46 °C and the melting temperature shift under setting [2] was 0.574 °C.
LAMP1 (UniProt P11279): under setting [1], the melting temperature shift turned out to be 2.36 °C.
In the case of WDR81 (UniProt Q562E7), under setting [1], the melting temperature shift is -0.185 °C.
As to UniProt Q8IXT5, the melting temperature shift by setting is: under setting [1], 0.533 °C; under setting [2], 1.69 °C.
Turning to PRPSAP1 (UniProt Q14558), the melting temperature shift under setting [1] is -1.07 °C and the melting temperature shift under setting [2] is -1.08 °C.
Regarding AIMP2 (UniProt Q13155), the melting temperature shift under setting [1] turned out to be 0.511 °C and the melting temperature shift under setting [2] is -0.409 °C.
Turning to ARID1A (UniProt O14497), the melting temperature shift runs as follows: under setting [1], -1.25 °C; under setting [2], -0.551 °C.
On to FARSA (UniProt Q9Y285), for which the melting temperature shift reads like this: under setting [1], -0.721 °C; under setting [2], -0.0485 °C.
For CALR (UniProt P27797), the melting temperature shift runs as follows: under setting [1], 1.16 °C; under setting [2], 0.757 °C.
With UniProt Q9C0A0, the melting temperature shift under setting [2] is 0.592 °C.
For RPN1 (UniProt P04843), the melting temperature shift under setting [1] came to 1.33 °C and the melting temperature shift under setting [2] is -0.445 °C.
Turning to CWC27 (UniProt Q6UX04), the melting temperature shift came to 0.386 °C under setting [1] and 0.549 °C under setting [2].
As to UniProt Q92610, the melting temperature shift under setting [2] was -1.87 °C.
In the case of UniProt P15144, under setting [1], the melting temperature shift came out at 2.34 °C.
As to COMMD9 (UniProt Q9P000), the melting temperature shift is 0.227 °C under setting [1] and 2.01 °C under setting [2].
Regarding GUSB (UniProt P08236), the melting temperature shift under setting [1] was found to be 0.182 °C.
For MAGEA1 (UniProt P43355), under setting [1], the melting temperature shift is -3 °C.
EIF2B2 (UniProt P49770): the melting temperature shift runs as follows: under setting [1], -0.464 °C; under setting [2], -0.303 °C.
On to GYS1 (UniProt P13807), for which the melting temperature shift under setting [1] was -0.613 °C and the melting temperature shift under setting [2] was -0.953 °C.
COX5A (UniProt P20674): the melting temperature shift under setting [1] was -0.773 °C and the melting temperature shift under setting [2] amounted to 0.588 °C.
In the case of MALT1 (UniProt Q9UDY8), the melting temperature shift under setting [1] was -0.457 °C and the melting temperature shift under setting [2] was -1.26 °C.
For DCPS (UniProt Q96C86) the same measures were -0.0837 °C and 0.0572 °C.
On to UniProt Q5VWK5, for which the melting temperature shift under setting [2] amounted to 0.531 °C.
With WDR74 (UniProt Q6RFH5), the melting temperature shift worked out at 0.0784 °C under setting [1] and 0.338 °C under setting [2].
ERGIC3 (UniProt Q9Y282): the melting temperature shift reads like this: under setting [1], 2.19 °C; under setting [2], -1.21 °C.
In the case of RAB14 (UniProt P61106), the melting temperature shift reads like this: under setting [1], 0.868 °C; under setting [2], -0.281 °C.
Turning to WASL (UniProt O00401), the melting temperature shift is -0.273 °C under setting [1] and -0.478 °C under setting [2].
Turning to UniProt O75845, the melting temperature shift under setting [1] amounted to 0.904 °C and the melting temperature shift under setting [2] is -1.15 °C.
In the case of ANKRD54 (UniProt Q6NXT1), under setting [2], the melting temperature shift was -1.46 °C.
In the case of NSRP1 (UniProt Q9H0G5), the melting temperature shift was -0.922 °C under setting [1] and -0.515 °C under setting [2].
For the target SLC25A24 (UniProt Q6NUK1), the melting temperature shift by setting is: under setting [1], 1.65 °C; under setting [2], -2.92 °C.
The like results for NUDT9 (UniProt Q9BW91) were, in that order, 0.723 °C and -0.783 °C.
As for BLOC1S4 (UniProt Q9NUP1), the melting temperature shift under setting [2] amounted to 1.12 °C.
With SNU13 (UniProt P55769), the melting temperature shift was 0.0388 °C under setting [1] and 0.0334 °C under setting [2].
The like results for C8ORF82 (UniProt Q6P1X6) were, in that order, -0.407 °C and -0.325 °C.
As to RMND5A (UniProt Q9H871), the melting temperature shift is -0.105 °C under setting [1] and -0.288 °C under setting [2].
The like results for USP47 (UniProt Q96K76) were, in that order, -0.411 °C and 0.324 °C.
For CC2D1A (UniProt Q6P1N0) the same measures were -1.68 °C and -1.17 °C.
For the target UniProt Q9H0Q0, under setting [2], the melting temperature shift is -0.345 °C.
For the target EIF3E (UniProt P60228), the melting temperature shift is -0.684 °C under setting [1] and 0.138 °C under setting [2].
On to UniProt P43359, for which the melting temperature shift under setting [1] is -1.62 °C.
Consider TBCC (UniProt Q15814), for which the melting temperature shift under setting [1] was -0.192 °C and the melting temperature shift under setting [2] was 0.337 °C.
In the case of RPN2 (UniProt P04844), the melting temperature shift under setting [1] amounted to 1.42 °C and the melting temperature shift under setting [2] was -0.472 °C.
Turning to UniProt Q6SZW1, the melting temperature shift under setting [1] was -0.0159 °C.
Regarding SH3D19 (UniProt Q5HYK7), the melting temperature shift under setting [2] is -4.49 °C.
As for ILK (UniProt Q13418), the melting temperature shift runs as follows: under setting [1], 0.104 °C; under setting [2], -0.642 °C.
For GATAD2B (UniProt Q8WXI9), the melting temperature shift runs as follows: under setting [1], 0.814 °C; under setting [2], -0.216 °C.
The like results for UniProt Q7Z7L1 were, in that order, -1.78 °C and -2.02 °C.
As for HSPA13 (UniProt P48723), the melting temperature shift reads like this: under setting [1], 0.812 °C; under setting [2], 0.197 °C.
As for UniProt Q96HJ9, the melting temperature shift under setting [2] was -0.166 °C.
